{"sequences": {"note": "Amino acid sequences for entries named in this document (tags omitted). A change or cut given only in a name is not applied to a line headed by its entry.", "UniProt P63101": "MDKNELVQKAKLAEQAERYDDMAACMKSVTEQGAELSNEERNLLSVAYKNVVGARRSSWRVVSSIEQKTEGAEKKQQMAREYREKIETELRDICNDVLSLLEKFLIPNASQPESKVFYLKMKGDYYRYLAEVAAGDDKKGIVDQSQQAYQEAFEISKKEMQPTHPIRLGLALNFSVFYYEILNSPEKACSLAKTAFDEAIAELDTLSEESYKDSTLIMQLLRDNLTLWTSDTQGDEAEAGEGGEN", "UniProt P58686": "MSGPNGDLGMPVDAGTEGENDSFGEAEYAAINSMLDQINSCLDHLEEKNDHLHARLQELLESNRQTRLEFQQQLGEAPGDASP", "UniProt P59808": "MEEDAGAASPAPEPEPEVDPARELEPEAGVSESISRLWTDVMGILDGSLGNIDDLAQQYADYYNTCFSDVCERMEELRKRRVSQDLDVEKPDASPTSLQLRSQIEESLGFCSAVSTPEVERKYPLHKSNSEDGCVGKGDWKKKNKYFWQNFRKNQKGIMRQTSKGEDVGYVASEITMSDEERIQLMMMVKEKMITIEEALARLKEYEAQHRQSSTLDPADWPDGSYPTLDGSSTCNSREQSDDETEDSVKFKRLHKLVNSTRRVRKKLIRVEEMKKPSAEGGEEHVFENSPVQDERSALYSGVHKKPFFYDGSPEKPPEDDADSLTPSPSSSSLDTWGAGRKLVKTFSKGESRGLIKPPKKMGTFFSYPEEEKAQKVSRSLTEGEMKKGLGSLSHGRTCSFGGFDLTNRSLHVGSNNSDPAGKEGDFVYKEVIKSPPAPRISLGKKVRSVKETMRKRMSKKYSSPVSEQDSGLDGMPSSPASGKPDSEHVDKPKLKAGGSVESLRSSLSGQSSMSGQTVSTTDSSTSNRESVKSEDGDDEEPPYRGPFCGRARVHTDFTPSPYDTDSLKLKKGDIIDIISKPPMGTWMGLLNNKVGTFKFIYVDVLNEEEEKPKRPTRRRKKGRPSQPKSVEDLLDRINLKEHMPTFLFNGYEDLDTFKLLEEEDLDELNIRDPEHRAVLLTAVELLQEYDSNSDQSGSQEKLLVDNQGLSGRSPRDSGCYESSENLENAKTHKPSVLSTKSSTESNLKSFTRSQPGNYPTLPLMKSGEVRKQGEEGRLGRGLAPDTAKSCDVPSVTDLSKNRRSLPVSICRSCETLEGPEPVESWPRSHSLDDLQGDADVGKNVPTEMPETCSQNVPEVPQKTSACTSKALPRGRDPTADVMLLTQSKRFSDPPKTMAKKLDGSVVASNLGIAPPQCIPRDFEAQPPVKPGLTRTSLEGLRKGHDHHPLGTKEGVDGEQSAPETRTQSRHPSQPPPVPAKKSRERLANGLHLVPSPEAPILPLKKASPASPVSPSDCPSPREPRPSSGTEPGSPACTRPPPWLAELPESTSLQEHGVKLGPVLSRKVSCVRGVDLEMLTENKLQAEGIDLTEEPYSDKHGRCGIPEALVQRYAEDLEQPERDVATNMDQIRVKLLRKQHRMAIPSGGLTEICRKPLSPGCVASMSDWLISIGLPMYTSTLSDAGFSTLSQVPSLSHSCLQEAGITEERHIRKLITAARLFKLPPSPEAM", "UniProt P54227": "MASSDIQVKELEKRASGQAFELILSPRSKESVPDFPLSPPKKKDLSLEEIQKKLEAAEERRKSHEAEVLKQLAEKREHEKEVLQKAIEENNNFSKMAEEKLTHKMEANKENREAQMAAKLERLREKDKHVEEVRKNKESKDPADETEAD", "UniProt P63028": "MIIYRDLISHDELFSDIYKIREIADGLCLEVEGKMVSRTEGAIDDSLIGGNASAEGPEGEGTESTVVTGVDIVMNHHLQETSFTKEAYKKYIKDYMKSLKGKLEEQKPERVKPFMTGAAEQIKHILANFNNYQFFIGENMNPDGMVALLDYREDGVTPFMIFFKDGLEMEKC", "UniProt P59438": "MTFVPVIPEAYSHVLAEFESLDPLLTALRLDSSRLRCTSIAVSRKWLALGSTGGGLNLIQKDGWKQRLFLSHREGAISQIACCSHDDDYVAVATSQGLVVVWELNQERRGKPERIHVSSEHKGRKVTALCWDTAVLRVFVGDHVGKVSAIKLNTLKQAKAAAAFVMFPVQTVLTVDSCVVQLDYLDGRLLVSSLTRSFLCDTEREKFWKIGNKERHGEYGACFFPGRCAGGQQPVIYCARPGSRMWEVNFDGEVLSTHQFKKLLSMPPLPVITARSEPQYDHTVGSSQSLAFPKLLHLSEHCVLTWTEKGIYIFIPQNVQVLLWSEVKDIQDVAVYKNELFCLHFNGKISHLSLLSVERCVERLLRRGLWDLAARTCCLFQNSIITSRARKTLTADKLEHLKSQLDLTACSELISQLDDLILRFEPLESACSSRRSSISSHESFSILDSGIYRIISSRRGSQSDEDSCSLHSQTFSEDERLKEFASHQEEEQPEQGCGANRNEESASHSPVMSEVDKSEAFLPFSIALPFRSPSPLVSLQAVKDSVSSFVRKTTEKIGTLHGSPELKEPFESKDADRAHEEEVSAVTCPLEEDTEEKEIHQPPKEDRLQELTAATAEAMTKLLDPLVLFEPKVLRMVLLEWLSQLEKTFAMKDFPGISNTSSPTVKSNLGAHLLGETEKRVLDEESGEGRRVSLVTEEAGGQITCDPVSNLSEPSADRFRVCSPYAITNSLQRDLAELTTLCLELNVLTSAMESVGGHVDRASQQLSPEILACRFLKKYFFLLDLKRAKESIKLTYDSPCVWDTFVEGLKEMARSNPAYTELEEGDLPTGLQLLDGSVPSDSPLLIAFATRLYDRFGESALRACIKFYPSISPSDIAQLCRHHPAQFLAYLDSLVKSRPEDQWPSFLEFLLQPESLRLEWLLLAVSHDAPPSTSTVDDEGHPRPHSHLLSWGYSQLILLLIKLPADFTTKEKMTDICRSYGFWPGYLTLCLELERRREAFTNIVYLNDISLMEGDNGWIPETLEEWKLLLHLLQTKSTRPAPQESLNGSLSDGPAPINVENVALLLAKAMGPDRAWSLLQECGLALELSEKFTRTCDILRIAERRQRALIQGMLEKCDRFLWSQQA", "UniProt P59108": "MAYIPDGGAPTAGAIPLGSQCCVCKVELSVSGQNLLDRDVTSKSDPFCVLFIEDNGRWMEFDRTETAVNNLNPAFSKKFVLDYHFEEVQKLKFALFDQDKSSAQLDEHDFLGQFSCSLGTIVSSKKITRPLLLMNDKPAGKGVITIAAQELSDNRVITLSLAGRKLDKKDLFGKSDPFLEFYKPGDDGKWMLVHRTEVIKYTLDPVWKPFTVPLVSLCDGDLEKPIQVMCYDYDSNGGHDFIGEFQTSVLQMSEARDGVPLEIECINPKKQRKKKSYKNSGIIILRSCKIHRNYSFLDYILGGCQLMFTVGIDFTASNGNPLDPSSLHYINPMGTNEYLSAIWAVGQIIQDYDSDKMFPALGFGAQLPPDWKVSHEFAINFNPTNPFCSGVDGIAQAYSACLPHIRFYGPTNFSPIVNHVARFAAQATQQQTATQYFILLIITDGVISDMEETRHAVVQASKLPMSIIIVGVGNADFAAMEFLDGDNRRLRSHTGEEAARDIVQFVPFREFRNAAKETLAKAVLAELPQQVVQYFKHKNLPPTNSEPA", "UniProt P61022": "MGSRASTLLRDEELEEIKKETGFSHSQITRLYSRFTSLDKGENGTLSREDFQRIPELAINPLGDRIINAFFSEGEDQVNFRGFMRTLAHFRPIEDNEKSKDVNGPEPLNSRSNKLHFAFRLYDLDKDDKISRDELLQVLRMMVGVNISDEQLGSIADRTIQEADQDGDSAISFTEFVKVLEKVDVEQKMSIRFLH", "UniProt P61759, whole entry": "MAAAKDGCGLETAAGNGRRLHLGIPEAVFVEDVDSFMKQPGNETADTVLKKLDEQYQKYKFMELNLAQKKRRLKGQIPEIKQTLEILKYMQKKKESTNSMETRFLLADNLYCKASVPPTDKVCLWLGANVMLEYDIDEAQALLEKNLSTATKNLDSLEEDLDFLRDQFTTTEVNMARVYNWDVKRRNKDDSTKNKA", "UniProt P54822": "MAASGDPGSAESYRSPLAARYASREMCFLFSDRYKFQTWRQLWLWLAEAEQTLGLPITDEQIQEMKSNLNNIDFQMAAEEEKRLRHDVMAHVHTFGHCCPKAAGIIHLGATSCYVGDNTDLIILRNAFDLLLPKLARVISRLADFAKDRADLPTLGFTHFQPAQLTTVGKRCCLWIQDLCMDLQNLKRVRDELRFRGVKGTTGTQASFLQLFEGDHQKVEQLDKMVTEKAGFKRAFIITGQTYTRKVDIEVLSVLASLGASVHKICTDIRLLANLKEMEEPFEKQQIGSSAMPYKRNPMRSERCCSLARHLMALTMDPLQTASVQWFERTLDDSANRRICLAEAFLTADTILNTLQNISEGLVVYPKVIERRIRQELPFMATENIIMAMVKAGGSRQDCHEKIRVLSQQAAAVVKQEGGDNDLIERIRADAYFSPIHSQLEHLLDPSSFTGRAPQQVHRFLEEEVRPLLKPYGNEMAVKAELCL", "UniProt P56383": "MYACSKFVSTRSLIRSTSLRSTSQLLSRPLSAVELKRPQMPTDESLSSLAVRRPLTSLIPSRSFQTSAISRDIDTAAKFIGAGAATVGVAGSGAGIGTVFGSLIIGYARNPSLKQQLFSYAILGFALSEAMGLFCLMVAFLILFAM", "UniProt P58466": "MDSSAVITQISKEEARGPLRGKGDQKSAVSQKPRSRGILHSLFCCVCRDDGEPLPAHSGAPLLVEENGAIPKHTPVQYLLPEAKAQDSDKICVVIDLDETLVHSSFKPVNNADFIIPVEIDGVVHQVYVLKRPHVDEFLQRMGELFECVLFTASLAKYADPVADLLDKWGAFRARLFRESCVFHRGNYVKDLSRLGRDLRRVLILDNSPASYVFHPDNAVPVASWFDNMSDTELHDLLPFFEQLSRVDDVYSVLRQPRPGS", "UniProt P61406": "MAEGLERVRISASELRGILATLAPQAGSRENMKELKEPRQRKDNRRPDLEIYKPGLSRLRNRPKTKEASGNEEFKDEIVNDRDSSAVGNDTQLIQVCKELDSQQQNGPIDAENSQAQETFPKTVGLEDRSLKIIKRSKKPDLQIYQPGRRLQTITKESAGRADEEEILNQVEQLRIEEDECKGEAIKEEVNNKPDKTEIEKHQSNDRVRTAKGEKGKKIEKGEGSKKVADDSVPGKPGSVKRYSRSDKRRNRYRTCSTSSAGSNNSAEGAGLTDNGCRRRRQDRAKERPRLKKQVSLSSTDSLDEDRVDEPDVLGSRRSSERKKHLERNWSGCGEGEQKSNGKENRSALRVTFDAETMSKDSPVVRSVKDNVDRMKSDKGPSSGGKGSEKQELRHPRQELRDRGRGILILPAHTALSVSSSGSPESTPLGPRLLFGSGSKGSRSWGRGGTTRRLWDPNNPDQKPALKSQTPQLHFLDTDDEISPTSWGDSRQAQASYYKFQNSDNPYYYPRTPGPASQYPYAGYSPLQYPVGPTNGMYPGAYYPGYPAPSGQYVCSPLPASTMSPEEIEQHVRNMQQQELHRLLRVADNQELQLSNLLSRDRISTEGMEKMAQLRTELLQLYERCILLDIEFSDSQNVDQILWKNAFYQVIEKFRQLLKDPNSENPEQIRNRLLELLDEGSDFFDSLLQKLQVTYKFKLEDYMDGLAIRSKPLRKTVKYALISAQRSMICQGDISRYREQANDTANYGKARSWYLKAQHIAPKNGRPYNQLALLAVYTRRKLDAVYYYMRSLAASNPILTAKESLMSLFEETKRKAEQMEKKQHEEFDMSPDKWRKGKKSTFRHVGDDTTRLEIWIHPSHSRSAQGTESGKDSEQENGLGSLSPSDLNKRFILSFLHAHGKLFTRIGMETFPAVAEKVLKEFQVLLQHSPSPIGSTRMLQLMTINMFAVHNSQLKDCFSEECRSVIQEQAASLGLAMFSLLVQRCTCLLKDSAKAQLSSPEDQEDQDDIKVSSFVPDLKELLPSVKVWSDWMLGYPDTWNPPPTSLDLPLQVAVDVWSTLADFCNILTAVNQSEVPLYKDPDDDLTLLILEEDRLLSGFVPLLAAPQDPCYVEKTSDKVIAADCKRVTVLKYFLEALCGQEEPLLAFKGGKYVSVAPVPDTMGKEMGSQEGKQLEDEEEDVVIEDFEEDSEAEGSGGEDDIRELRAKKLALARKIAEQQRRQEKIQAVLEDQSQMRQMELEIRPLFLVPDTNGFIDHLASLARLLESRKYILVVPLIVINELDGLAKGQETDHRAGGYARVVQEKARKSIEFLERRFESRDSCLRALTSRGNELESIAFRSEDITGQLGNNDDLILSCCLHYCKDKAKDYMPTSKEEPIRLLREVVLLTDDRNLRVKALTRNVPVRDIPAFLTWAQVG"}, "source": "the supplement of paper PMC12819154", "about": "“High-throughput peptide-centric local stability assay extends protein–ligand identification to membrane proteins, tissues and bacteria” (Nature Structural & Molecular Biology, 2025)", "note": "The other results are listed elsewhere or left out. Most values lie at the level of the controls, where differences are scatter.", "data": [{"compound": "CN[C@@H]1C[C@H]2O[C@@](C)([C@@H]1OC)n1c3ccccc3c3c4c(c5c6ccccc6n2c5c31)C(=O)NC4 [staurosporine]", "test": "log2 fold change of tryptic peptide abundance, ligand vs vehicle (limited proteolysis) (log2 ratio); higher = more trypsin-susceptible (destabilized)", "conditions": "ligand concentration: 20 uM; sample: mouse liver crude lysate; replicate design: treated separately", "values": [{"target": "UniProt P63101 (peptide sequence: YLAEVAAGDDKK, peptide start residue: 128)", "log2 fold change": 0.106}, {"target": "UniProt P58686 (peptide sequence: LQELLESNR, peptide start residue: 56)", "log2 fold change": 0.201}, {"target": "UniProt P58774 (peptide sequence: LVILEGELER, peptide start residue: 169)", "log2 fold change": 0.223}, {"target": "UniProt P58929 (peptide sequence: EFVHLAGK, peptide start residue: 129)", "log2 fold change": -0.215}, {"target": "UniProt P59808 (peptide sequence: HPSQPPPVPAKK, peptide start residue: 971)", "log2 fold change": 0.41}, {"target": "UniProt P59326 (peptide sequence: LENNDNKPVTNSR, peptide start residue: 521)", "log2 fold change": -0.325}, {"target": "UniProt P59178 (peptide sequence: LEVVDKTQVSR, peptide start residue: 329)", "log2 fold change": -0.604}, {"target": "UniProt P55041 (peptide sequence: QGTVGMQPQQR, peptide start residue: 10)", "log2 fold change": 0.616}, {"target": "UniProt P62932 (peptide sequence: KRYSHGGTSWK, peptide start residue: 626)", "log2 fold change": -0.0248}, {"target": "UniProt P54099 (peptide sequence: LSADGEWLVK, peptide start residue: 976)", "log2 fold change": 0.217}, {"target": "UniProt P54227 (peptide sequence: SHEAEVLK, peptide start residue: 63)", "log2 fold change": -0.295}, {"target": "UniProt P57759 (peptide sequence: WASQYLK, peptide start residue: 200)", "log2 fold change": 0.109}, {"target": "UniProt P57784 (peptide sequence: GGPSAGDVEAIK, peptide start residue: 194)", "log2 fold change": 0.0935}, {"target": "UniProt P63028 (peptide sequence: LEEQKPER, peptide start residue: 103)", "log2 fold change": -0.927}, {"target": "UniProt P59438 (peptide sequence: SPSPLVSLQAVK, peptide start residue: 532)", "log2 fold change": -0.0712}, {"target": "UniProt P59108 (peptide sequence: VITLSLAGR, peptide start residue: 156)", "log2 fold change": 0.324}, {"target": "UniProt P56135 (peptide sequence: ASLVPLKEK, peptide start residue: 2)", "log2 fold change": -0.0696}, {"target": "UniProt P58660 (peptide sequence: AQQLLEVQEK, peptide start residue: 760)", "log2 fold change": -0.125}, {"target": "UniProt P61022 (peptide sequence: DELLQVLR, peptide start residue: 133)", "log2 fold change": -0.131}, {"target": "UniProt P61759 (peptide sequence: KKESTNSMETR, peptide start residue: 93)", "log2 fold change": -0.437}, {"target": "UniProt P54822 (peptide sequence: FLEEEVRPLLKPYGNEMAVK, peptide start residue: 460)", "log2 fold change": -0.148}, {"target": "UniProt P56383 (peptide sequence: STSQLLSRPLSAVELK, peptide start residue: 21)", "log2 fold change": 0.165}, {"target": "UniProt P58466 (peptide sequence: VDDVYSVLR, peptide start residue: 247)", "log2 fold change": -0.718}, {"target": "UniProt P61406 (peptide sequence: VADDSVPGKPGSVKR, peptide start residue: 228)", "log2 fold change": 0.462}]}]}
